Percent effect of library compounds

Mtb cholesterol medium: 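Phenotypic screen: M. tuberculosis growth, cholesterol and DPPC medium, 4 days; the read-out is not stated. Tested at 50 µM. The record gives no direction; compounds that gave an IC50 in retests scored well above the rest, so higher reads as more growth inhibition. Size under these conditions: about 69,000 compounds, about 370 of them at 50% or above in at least one test.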
Mtb glucose medium: 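Whole-cell growth test on Mycobacterium tuberculosis, read after 3 days in glucose-containing 7H9 medium; the read-out is not stated. Compounds at 50 µM. Direction is inferred from retests: higher values go with more growth inhibition. About 69,000 compounds were tested under these conditions; 1.1% (about 760) showed 50% or more at least once.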

Results are given as percent effect.
The record does not define 0% and 100%; most values in the screen are far below 50% and negative numbers occur (in some assays of this library far below -100).
This is an unselected part of the compounds tested.
Two or more numbers in one place are separate tests of the same structure; such repeats can differ widely.

{"compound": "CN(CCO)C(=O)Nc1ccn(-c2cccc(C(F)(F)F)c2)n1", "Mtb cholesterol medium": 1.722, "Mtb glucose medium": "0.4978 & 13.11"}
{"compound": "CC(C)NC(=O)Nc1ccc(CNCc2cccc(OC(F)F)c2)cc1", "Mtb cholesterol medium": -19.59, "Mtb glucose medium": -8.856}
{"compound": "c1ccc(Cc2cncc(C3CCCN3C3CCOCC3)n2)cc1", "stereo": "stereo not given", "Mtb cholesterol medium": "1.188 & -0.1312", "Mtb glucose medium": -20.18}
{"compound": "CC(C)c1nc(C(=O)N2CCOCC2CC(=O)c2ccco2)c[nH]1", "stereo": "stereo not given", "Mtb cholesterol medium": 21.94, "Mtb glucose medium": "-4.453 & 5.335"}
{"compound": "O=C(c1ccncc1Cl)N1CCN(Cc2ccco2)C(CCO)C1", "stereo": "stereo not given", "Mtb cholesterol medium": -36.44, "Mtb glucose medium": 8.003}
{"compound": "COC(=O)C(NC(=O)CC(C)C)c1cc(F)ccc1F", "stereo": "stereo not given", "Mtb cholesterol medium": -12.47, "Mtb glucose medium": 30.45}
{"compound": "CCN1CCCN(C(=O)c2cnc(OC(C)C)c(Cl)c2)CC1", "Mtb cholesterol medium": -8.539, "Mtb glucose medium": -36.36}
{"compound": "Cc1ccc(CN2CCC3(CCCN3S(C)(=O)=O)CC2)s1.O=C(O)C(F)(F)F", "Mtb cholesterol medium": -0.8996, "Mtb glucose medium": -20.27}
{"compound": "CC(=O)c1cccc(-n2nc(C(C)=O)c(C(C)=O)c2C)c1", "Mtb cholesterol medium": 9.677, "Mtb glucose medium": "6.241 & 5.965"}
{"compound": "CC(C)(C)c1csc(CN2CCN(S(=O)(=O)c3cccnc3)CC2)n1", "Mtb cholesterol medium": -29.35, "Mtb glucose medium": -13.7}
{"compound": "CC(C)N1CCOCC2(CN(Cc3cccs3)CCO2)C1.O=C(O)C(F)(F)F.O=C(O)C(F)(F)F", "stereo": "stereo not given", "Mtb cholesterol medium": -24.25, "Mtb glucose medium": "-4.143 & -9.997"}
{"compound": "O=C1OCCCN1Cc1nc(-c2ccncc2)no1", "Mtb cholesterol medium": 15.72, "Mtb glucose medium": "21.67 & 2.952"}
{"compound": "CCn1cc(NC(=O)NCC(O)c2ccccc2)cn1", "stereo": "stereo not given", "Mtb cholesterol medium": -0.3909, "Mtb glucose medium": -7.318}
{"compound": "Cc1ccc(OCCN(C)C(=O)CCCC(N)=O)c(C)c1", "Mtb cholesterol medium": 18.33, "Mtb glucose medium": -0.7856}
{"compound": "CCN(CC1CCOC1)C(=O)CSCC(=O)Nc1ccc(C)cc1", "stereo": "stereo not given", "Mtb cholesterol medium": -11.35, "Mtb glucose medium": 11.15}
{"compound": "Cc1cc(C)nc(CN(C)C(=O)c2ccccc2C2CCNC2)c1", "stereo": "stereo not given", "Mtb cholesterol medium": "7 & 0.1985", "Mtb glucose medium": 9.436}
{"compound": "Cc1c(C)n(CC(O)CN2CCOCC2)c2c(Cl)cccc12.Cl", "stereo": "stereo not given", "Mtb cholesterol medium": 9.028, "Mtb glucose medium": -23.75}
{"compound": "CCN(CC)C(=O)C1CCCN1C(=O)c1cccc(-n2cnnn2)c1", "stereo": "stereo not given", "Mtb cholesterol medium": -5.016, "Mtb glucose medium": "0.1568 & 19.56"}
{"compound": "O=C(O)C(F)(F)F.[H][C@@]12CCN(Cc3cn(C)c4ccccc34)[C@]1([H])CC[C@@H](C(=O)NC(C)C)O2", "Mtb cholesterol medium": -25.4, "Mtb glucose medium": 1.069}
{"compound": "COc1ccc(-c2nc(CN3CC(n4nc(C)cc4C)C3)no2)cc1", "Mtb cholesterol medium": -21.02, "Mtb glucose medium": 1.947}
{"compound": "CCc1nc(CN(C)C(=O)NC(C)c2cccc(NC(C)=O)c2)cs1", "stereo": "stereo not given", "Mtb cholesterol medium": -11.19, "Mtb glucose medium": "-5.942 & -0.6219"}
{"compound": "CC(=O)N[C@@H]1C[C@H](Cc2ccccc2)O[C@H](c2ccc(C(=O)O)cc2)C1", "Mtb cholesterol medium": "0.9148 & -6.625", "Mtb glucose medium": -13.8}
{"compound": "CN(Cc1n[nH]c2c1CCC2)C(=O)c1cccc(CCC(C)(C)O)c1", "Mtb cholesterol medium": "14.37 & -1.697", "Mtb glucose medium": 13.86}
{"compound": "[H][C@@]12C[C@H](C(=O)NC(C)C)[C@@]([H])(CN(C(=O)NC(C)C)C1)O2", "Mtb cholesterol medium": -40.91, "Mtb glucose medium": -19.96}
{"compound": "Cc1nc(CCNc2nc(N(C)C)nc3c2CCCC3)cc(=O)[nH]1", "Mtb cholesterol medium": -2.496, "Mtb glucose medium": 17.39}
{"compound": "CCC(CNC1CCN(C(C)=O)CC1)Oc1ccccc1Cl", "stereo": "stereo not given", "Mtb cholesterol medium": -13.5, "Mtb glucose medium": -25.63}
{"compound": "COc1ncccc1CNC1CCc2c(ccc(=O)n2C)C1.O=C(O)C(F)(F)F.O=C(O)C(F)(F)F", "stereo": "stereo not given", "Mtb cholesterol medium": -29.65, "Mtb glucose medium": -16.93}
{"compound": "CCN1CCC(NC(=O)CN2CCCCC2Cn2cccn2)CC1", "stereo": "stereo not given", "Mtb cholesterol medium": "4.808 & -8.648", "Mtb glucose medium": -21.46}
{"compound": "COCCn1ccc(NC(=O)Nc2cccc(C#N)c2)n1", "Mtb cholesterol medium": 3.213, "Mtb glucose medium": 6.651}
{"compound": "[H][C@@]12CCN(C[C@@H]1CC)[C@@H](CNCc1ccc(N(C)C)cc1)C2", "Mtb cholesterol medium": -20.98, "Mtb glucose medium": "-1.692 & -13.95"}
{"compound": "Cc1ccc(CN2CCc3[nH]nc(C(=O)N(C)C)c3C2)o1.O=C(O)C(F)(F)F", "Mtb cholesterol medium": -27.16, "Mtb glucose medium": -5.92}
{"compound": "c1cnn(Cc2nnc3n2CCCN(c2nccs2)C3)c1", "Mtb cholesterol medium": -19.2, "Mtb glucose medium": "-7.444 & -13.44"}
{"compound": "CN(C)CCNc1ncccc1CNC(=O)Nc1cc(F)cc(F)c1", "Mtb cholesterol medium": 3.109, "Mtb glucose medium": "7.961 & 3.375"}
{"compound": "CNC(=O)Cc1noc(-c2cc3c(s2)CCC(C)C3)n1", "stereo": "stereo not given", "Mtb cholesterol medium": 21.25, "Mtb glucose medium": "0.09764 & 13.27"}
{"compound": "Cc1nn(C)c2nc(NCCOCCO)sc12", "Mtb cholesterol medium": -16.18, "Mtb glucose medium": "13.03 & 5.631"}
{"compound": "Cc1ccc(S(=O)(=O)NC(=O)c2cc(S(C)(=O)=O)ccc2C)s1", "Mtb cholesterol medium": -12.43, "Mtb glucose medium": 20.6}
{"compound": "O=C(O)C(F)(F)F.O=C(O)C(F)(F)F.[H][C@@]12CN(Cc3ccsc3)C[C@]1([H])OCCN2CC1CCCO1", "stereo": "stereo not given in full", "Mtb cholesterol medium": -13.53, "Mtb glucose medium": -30.19}
{"compound": "CCOCCC(=O)N1CCCCC1CCn1cccn1", "stereo": "stereo not given", "Mtb cholesterol medium": 6.901, "Mtb glucose medium": -19.04}
{"compound": "CCCN1CCC(NC(=O)c2csc(C)c2-c2ccccc2)CC1", "Mtb cholesterol medium": "-1.118 & 2.454", "Mtb glucose medium": "6.253 & -0.6244"}
{"compound": "CN(C)c1ncc(I)c(C2CCCN2S(C)(=O)=O)n1", "stereo": "stereo not given", "Mtb cholesterol medium": -44.5, "Mtb glucose medium": -12.9}
{"compound": "COc1cccc(OCc2cc(C(=O)NC[C@H]3CCCN3)n[nH]2)c1", "Mtb cholesterol medium": 2.832, "Mtb glucose medium": "4.91 & -5.356"}
{"compound": "NC(=O)c1ccnc(N2CCCC(CO)(Cc3ccccc3)C2)c1", "stereo": "stereo not given", "Mtb cholesterol medium": -16.76, "Mtb glucose medium": 0.8206}
{"compound": "CS(=O)(=O)NCc1n[nH]c2c1CCN(C(=O)c1ccsc1)C2", "Mtb cholesterol medium": -4.735, "Mtb glucose medium": -38.1}
{"compound": "O=C(O)C1(Oc2ccccc2F)CCN(C/C=C/c2ccco2)CC1", "Mtb cholesterol medium": 18.21, "Mtb glucose medium": "12.77 & 7.412"}
{"compound": "CCN(CC)CCCNc1nc(C)nc2c1CCN(C)C2.O=C(O)CC(O)(CC(=O)O)C(=O)O", "Mtb cholesterol medium": "-0.1677 & 5.758", "Mtb glucose medium": -9.323}
{"compound": "Cc1cnccc1-c1cc(NCCO)nc2[nH]ccc12", "Mtb cholesterol medium": -11.01, "Mtb glucose medium": -32.29}
{"compound": "O=C(O)C(F)(F)F.[H][C@@]12CCN(S(=O)(=O)c3ccc(C)cc3)C[C@]1([H])[C@@H](CN(C)C)OC2", "Mtb cholesterol medium": -2.315, "Mtb glucose medium": -0.9045}

3 of the entries, repeated:

{"compound": "Cc1ccc(CN2CCc3[nH]nc(C(=O)N(C)C)c3C2)o1.O=C(O)C(F)(F)F", "Mtb cholesterol medium": -27.16, "Mtb glucose medium": -5.92}
{"compound": "O=C(c1ccncc1Cl)N1CCN(Cc2ccco2)C(CCO)C1", "stereo": "stereo not given", "Mtb cholesterol medium": -36.44, "Mtb glucose medium": 8.003}
{"compound": "Cc1ccc(CN2CCC3(CCCN3S(C)(=O)=O)CC2)s1.O=C(O)C(F)(F)F", "Mtb cholesterol medium": -0.8996, "Mtb glucose medium": -20.27}

Measurements from “University of Dundee, Small-Polar-MMV Screening Library” (2021), ChEMBL document CHEMBL3988442.